This is one part of the list. Most values lie at the level of the controls, where differences are scatter.
compound: CC1(C)S[C@@H]2[C@H](NC(=O)[C@H](N)c3ccccc3)C(=O)N2[C@H]1C(=O)O [ampicillin]; assay: log2 fold change of tryptic peptide abundance, ligand vs vehicle (limited proteolysis) (log2 ratio); higher = more trypsin-susceptible (destabilized); conditions: ligand concentration: 10 uM; sample: E. coli crude lysate

Protein sequences, listed by entry. Tags and fused reporters are not part of them. Lines headed by an entry give the natural chain unless they say otherwise; changes in a name come on top.
UniProt P25741: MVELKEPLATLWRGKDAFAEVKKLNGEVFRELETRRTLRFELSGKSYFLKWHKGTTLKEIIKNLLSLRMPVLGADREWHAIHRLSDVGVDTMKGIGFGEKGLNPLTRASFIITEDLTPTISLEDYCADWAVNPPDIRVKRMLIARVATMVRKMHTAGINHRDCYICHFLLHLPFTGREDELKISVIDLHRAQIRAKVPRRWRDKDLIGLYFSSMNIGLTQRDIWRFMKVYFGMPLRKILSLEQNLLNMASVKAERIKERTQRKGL
UniProt P32674: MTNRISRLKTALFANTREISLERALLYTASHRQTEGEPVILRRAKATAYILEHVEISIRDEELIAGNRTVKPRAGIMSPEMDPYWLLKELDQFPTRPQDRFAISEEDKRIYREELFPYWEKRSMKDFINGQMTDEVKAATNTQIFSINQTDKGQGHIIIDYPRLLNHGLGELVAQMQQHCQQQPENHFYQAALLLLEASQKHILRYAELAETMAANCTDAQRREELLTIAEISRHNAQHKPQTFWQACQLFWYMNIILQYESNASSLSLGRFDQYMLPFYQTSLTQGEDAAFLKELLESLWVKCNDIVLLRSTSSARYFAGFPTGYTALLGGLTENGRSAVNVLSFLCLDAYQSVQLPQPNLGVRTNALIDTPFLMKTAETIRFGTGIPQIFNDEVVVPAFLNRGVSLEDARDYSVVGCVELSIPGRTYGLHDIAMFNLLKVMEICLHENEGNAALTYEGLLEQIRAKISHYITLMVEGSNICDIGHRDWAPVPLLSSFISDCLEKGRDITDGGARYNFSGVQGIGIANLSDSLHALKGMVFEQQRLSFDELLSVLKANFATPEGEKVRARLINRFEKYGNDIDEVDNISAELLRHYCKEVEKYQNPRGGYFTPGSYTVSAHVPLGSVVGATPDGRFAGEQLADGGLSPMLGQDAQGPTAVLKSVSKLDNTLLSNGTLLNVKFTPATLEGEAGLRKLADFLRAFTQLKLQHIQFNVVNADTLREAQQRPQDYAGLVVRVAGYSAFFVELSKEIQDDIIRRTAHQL
UniProt P31474: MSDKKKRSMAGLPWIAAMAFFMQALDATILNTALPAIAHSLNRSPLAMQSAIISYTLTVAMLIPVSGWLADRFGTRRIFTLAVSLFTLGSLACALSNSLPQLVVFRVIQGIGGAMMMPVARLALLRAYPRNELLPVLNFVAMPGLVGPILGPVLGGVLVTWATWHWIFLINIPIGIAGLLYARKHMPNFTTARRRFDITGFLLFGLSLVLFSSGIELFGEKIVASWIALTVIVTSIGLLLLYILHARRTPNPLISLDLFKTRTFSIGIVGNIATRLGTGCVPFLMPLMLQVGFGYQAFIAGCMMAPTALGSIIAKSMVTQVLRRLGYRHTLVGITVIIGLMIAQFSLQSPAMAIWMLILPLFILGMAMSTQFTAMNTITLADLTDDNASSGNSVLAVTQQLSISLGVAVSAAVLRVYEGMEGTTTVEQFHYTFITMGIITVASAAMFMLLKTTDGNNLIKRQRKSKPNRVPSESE
UniProt P25718: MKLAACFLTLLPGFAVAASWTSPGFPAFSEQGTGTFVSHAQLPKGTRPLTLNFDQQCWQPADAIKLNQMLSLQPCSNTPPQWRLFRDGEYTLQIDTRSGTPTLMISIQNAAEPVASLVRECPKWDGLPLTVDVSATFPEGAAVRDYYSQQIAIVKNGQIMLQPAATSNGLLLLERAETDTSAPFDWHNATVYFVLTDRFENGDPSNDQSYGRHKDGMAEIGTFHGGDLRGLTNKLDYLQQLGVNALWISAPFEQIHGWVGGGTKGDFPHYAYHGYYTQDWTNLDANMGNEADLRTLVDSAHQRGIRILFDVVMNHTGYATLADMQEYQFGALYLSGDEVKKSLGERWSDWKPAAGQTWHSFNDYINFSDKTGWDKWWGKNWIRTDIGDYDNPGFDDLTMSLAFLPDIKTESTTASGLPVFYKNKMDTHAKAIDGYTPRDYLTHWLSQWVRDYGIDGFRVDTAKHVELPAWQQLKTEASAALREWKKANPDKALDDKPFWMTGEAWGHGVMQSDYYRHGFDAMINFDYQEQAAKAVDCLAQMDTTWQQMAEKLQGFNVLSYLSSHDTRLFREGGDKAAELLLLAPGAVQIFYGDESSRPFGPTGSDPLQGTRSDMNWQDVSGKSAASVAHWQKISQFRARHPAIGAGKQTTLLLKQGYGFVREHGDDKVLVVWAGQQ
UniProt P32684: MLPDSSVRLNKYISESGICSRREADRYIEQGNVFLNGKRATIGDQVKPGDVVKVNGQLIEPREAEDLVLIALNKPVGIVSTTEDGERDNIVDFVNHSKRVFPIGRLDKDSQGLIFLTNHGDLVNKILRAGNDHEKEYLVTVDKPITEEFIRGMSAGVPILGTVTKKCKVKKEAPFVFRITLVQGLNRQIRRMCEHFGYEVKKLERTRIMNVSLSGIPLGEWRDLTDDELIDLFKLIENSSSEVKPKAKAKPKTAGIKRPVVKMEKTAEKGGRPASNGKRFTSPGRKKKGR
UniProt P24205: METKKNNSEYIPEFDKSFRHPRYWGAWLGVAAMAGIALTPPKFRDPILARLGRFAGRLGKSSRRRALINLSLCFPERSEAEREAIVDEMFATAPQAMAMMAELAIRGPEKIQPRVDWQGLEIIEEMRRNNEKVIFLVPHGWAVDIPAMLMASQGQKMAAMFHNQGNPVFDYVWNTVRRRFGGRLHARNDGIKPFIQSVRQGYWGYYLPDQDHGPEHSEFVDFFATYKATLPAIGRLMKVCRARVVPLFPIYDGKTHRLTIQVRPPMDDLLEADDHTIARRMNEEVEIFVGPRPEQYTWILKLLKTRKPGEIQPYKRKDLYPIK
UniProt P27243: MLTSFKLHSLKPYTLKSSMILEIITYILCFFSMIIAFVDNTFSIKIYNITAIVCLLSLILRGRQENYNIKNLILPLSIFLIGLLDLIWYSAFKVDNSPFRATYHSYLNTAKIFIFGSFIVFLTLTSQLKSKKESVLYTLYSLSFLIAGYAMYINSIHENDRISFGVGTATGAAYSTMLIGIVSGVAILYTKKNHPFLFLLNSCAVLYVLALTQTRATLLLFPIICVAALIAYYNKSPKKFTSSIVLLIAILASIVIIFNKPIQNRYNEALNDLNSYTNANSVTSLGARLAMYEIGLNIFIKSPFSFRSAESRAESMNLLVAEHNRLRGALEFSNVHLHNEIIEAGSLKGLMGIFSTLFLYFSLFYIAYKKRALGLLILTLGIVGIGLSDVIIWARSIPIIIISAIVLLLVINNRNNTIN
UniProt P26647: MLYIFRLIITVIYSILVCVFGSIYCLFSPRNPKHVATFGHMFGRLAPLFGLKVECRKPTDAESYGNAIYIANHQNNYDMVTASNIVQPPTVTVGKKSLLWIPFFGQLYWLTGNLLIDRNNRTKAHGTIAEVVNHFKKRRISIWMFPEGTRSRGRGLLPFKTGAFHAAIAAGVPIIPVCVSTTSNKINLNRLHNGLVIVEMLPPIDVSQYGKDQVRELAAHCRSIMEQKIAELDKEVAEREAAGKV
UniProt P32160: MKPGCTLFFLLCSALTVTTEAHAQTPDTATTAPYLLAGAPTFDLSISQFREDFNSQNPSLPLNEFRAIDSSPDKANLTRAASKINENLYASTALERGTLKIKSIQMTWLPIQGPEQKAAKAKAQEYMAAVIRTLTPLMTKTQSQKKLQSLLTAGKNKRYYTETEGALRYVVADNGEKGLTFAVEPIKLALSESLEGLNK
UniProt P33643: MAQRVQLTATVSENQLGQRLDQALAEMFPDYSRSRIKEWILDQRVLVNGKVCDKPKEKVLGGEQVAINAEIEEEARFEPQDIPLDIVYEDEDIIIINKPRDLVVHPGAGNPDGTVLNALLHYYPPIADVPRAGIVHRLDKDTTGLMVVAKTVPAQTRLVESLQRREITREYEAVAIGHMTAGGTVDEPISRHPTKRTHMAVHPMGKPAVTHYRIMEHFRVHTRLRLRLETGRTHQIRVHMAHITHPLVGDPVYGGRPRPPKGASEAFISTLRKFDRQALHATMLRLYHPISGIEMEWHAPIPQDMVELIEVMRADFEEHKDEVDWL
UniProt P25539: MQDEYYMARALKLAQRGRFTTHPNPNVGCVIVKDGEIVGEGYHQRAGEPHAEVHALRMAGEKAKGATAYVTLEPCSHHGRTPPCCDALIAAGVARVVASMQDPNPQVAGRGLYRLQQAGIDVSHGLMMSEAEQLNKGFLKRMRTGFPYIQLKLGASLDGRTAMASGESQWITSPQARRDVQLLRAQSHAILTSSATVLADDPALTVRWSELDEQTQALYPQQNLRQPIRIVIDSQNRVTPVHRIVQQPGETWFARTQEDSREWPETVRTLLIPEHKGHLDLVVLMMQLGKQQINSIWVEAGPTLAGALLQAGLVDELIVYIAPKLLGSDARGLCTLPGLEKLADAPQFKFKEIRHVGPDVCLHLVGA
UniProt P27127: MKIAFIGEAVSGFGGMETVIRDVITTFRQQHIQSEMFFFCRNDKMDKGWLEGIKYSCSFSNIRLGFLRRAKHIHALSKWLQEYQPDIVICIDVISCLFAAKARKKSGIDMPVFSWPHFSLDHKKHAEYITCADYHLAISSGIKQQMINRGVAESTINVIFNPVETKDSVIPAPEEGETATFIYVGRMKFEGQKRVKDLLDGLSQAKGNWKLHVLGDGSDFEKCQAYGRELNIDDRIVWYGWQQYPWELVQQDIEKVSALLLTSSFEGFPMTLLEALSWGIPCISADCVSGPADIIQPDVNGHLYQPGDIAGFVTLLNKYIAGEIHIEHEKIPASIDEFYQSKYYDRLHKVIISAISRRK
UniProt P28911: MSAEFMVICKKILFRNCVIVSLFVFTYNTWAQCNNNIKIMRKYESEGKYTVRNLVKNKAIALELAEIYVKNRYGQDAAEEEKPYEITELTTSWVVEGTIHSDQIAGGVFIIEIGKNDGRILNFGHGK
UniProt P27833: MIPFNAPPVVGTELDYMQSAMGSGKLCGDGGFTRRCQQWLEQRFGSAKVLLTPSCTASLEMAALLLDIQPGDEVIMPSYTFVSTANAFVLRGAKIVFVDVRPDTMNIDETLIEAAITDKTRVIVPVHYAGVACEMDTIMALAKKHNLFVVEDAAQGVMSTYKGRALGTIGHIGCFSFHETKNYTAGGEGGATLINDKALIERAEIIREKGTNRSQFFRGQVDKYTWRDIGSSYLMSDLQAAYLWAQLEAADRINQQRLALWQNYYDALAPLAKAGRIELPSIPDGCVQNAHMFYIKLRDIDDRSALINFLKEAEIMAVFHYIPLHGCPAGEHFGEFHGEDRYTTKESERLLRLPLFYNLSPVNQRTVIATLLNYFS
UniProt P33014: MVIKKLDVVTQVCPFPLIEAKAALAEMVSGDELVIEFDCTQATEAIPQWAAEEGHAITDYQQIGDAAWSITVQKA
UniProt P32721: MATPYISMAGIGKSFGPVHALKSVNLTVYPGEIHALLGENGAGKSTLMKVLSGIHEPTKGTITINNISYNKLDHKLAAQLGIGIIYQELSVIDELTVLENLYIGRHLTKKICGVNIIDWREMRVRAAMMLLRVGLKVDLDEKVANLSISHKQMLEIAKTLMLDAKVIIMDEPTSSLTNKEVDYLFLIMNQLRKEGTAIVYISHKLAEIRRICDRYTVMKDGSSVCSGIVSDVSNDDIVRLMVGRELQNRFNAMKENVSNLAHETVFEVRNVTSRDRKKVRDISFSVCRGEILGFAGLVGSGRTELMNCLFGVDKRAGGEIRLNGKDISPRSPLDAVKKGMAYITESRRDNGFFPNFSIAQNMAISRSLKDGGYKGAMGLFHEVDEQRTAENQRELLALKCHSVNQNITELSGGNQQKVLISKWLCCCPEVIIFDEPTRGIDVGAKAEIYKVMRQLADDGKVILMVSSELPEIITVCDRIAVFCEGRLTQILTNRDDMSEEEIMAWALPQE
UniProt P28903: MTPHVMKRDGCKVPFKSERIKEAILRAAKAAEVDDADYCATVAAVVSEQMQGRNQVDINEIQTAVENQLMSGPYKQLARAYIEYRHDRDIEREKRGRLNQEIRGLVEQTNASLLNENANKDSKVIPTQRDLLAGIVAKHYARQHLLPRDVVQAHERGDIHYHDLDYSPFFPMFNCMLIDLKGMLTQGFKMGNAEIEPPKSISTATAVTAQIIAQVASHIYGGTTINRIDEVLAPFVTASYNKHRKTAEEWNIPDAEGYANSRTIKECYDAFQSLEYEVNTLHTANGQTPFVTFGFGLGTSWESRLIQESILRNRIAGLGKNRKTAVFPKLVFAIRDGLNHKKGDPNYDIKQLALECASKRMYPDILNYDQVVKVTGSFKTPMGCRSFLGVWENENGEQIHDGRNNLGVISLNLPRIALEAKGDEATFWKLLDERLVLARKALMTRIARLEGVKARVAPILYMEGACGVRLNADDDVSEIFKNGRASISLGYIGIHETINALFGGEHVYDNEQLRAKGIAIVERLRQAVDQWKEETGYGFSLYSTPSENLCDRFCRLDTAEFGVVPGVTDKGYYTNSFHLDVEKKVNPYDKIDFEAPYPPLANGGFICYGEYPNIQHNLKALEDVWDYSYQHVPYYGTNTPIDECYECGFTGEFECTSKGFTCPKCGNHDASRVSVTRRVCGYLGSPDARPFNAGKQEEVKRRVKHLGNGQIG

Target	log2 fold change
UniProt P25741 (peptide sequence: EPLATLWR, peptide start residue: 6)	-0.205
UniProt P26646 (peptide sequence: LGYQVVAVSGR, peptide start residue: 170)	0.114
UniProt P32674 (peptide sequence: EVEKYQNPR, peptide start residue: 600)	0.911
UniProt P31134 (peptide sequence: LLLLDEPMGALDKK, peptide start residue: 170)	-0.251
UniProt P24183 (peptide sequence: ASADINGKPWDPKR, peptide start residue: 782)	-0.783
UniProt P31474 (peptide sequence: SKPNRVPSESE, peptide start residue: 465)	0.124
UniProt P24188 (peptide sequence: KIVMYCTGGIRCEK, peptide start residue: 195)	-0.335
UniProt P26281 (peptide sequence: AFDKLNKW, peptide start residue: 152)	0.214
UniProt P32681 (peptide sequence: FDDRGDLSFMQR, peptide start residue: 108)	0.0253
UniProt P25718 (peptide sequence: HKDGMAEIGTFHGGDLR, peptide start residue: 213)	-0.19
UniProt P30011 (peptide sequence: ENHIIASGSVR, peptide start residue: 187)	0.12
UniProt P27128 (peptide sequence: KITHPDQDVLNMLLADK, peptide start residue: 215)	1.19
UniProt P32173 (peptide sequence: KDAPVVWVHDGERDHPTIALVNR, peptide start residue: 118)	-0.689
UniProt P31680 (peptide sequence: MNLHGASR, peptide start residue: 87)	0.133
UniProt P32684 (peptide sequence: GMSAGVPILGTVTK, peptide start residue: 152)	0.285
UniProt P24205 (peptide sequence: KDLYPIK, peptide start residue: 317)	0.211
UniProt P27243 (peptide sequence: QENYNIK, peptide start residue: 64)	0.0252
UniProt P26647 (peptide sequence: AHGTIAEVVNHFK, peptide start residue: 124)	0.744

An excerpt of these results, as labelled records.
UniProt P26281 (peptide sequence: AFDKLNKW, peptide start residue: 152)
  log2 fold change: 0.214
UniProt P32681 (peptide sequence: FDDRGDLSFMQR, peptide start residue: 108)
  log2 fold change: 0.0253

More results

Target	log2 fold change
UniProt P32160 (peptide sequence: AIDSSPDKANLTR, peptide start residue: 67)	-0.127
UniProt P33643 (peptide sequence: THMAVHPMGKPAVTHYR, peptide start residue: 197)	0.423
UniProt P32141 (peptide sequence: YTINDITR, peptide start residue: 4)	-0.24
UniProt P25539 (peptide sequence: TGFPYIQLK, peptide start residue: 144)	-0.763
UniProt P27127 (peptide sequence: LHVLGDGSDFEK, peptide start residue: 211)	-0.196
UniProt P28911 (peptide sequence: ILNFGHGK, peptide start residue: 120)	-0.197
UniProt P27833 (peptide sequence: ALIERAEIIREK, peptide start residue: 198)	-0.296
UniProt P33014 (peptide sequence: KLDVVTQVCPFPLIEAK, peptide start residue: 5)	0.0783
UniProt P31455 (peptide sequence: GGSHVHVFSPNGER, peptide start residue: 136)	0.19
UniProt P31663 (peptide sequence: KIAPGLYK, peptide start residue: 199)	0.344
UniProt P31069 (peptide sequence: TVLAVSDSK, peptide start residue: 341)	-0.0634
UniProt P27240 (peptide sequence: IIDLSGKR, peptide start residue: 175)	-0.17
UniProt P24240 (peptide sequence: YGFVFVDRDDAGNGTLTR, peptide start residue: 436)	0.187
UniProt P33368 (peptide sequence: IINITSVHEHTPLPDASAYTAAK, peptide start residue: 135)	-0.275
UniProt P32721 (peptide sequence: GEILGFAGLVGSGR, peptide start residue: 289)	0.16
UniProt P28903 (peptide sequence: LVFAIRDGLNHK, peptide start residue: 330)	-0.882
UniProt P27278 (peptide sequence: IKSPSAQKLEALHR, peptide start residue: 40)	-0.263

— the supplement of paper PMC12819154, “High-throughput peptide-centric local stability assay extends protein–ligand identification to membrane proteins, tissues and bacteria” (Nature Structural & Molecular Biology, 2025)
